The values below come from PMC9831654.

Protein sequences, listed by entry. Tags and fused reporters are not part of them.
UniProt P54652: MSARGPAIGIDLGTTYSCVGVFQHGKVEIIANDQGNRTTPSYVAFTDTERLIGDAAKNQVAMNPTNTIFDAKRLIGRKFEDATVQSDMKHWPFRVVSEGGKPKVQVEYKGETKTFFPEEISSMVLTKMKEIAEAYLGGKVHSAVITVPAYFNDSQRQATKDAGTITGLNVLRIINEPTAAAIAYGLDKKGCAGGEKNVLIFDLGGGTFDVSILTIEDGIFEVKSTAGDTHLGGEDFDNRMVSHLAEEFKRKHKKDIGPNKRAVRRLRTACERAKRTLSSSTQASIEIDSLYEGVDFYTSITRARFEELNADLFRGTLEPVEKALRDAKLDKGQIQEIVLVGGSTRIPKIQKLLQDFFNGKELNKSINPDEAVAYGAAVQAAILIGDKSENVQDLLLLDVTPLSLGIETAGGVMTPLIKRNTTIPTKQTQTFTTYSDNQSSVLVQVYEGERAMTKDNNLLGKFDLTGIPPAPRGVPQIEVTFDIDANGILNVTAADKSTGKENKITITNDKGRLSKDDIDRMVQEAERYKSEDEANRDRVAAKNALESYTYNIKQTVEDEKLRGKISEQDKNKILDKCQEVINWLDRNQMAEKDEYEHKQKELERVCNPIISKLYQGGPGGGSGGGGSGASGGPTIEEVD

No constants are given. Whether binding was seen depends on the method and setting. Binding seen in cells or lysates may run through a third protein. These calls come from enrichment with a bait or labelling near it, and not all partners need be listed.

For this assay, the target named is USP20 (bait of the co-immunoprecipitation analysed by mass spectrometry) (UniProt Q9Y2K6). The assay is described as follows: affinity purification with mass spectrometry; co-immunoprecipitation, gel pieces digested with trypsin, Q Exactive Plus; searched against the SwissProt human database; bait form and cells not stated.

Consider “HSPA2 (hit of the mass spectrometry of the USP20 co-immunoprecipitate) (from UniProt P54652 1-639)”, for which the binding result is “binds”.
